These are yes or no findings as the source states them, for the method shown. Binding seen in cells or lysates may run through a third protein. Some entries that bind do so weakly or less than the wild type. Where a sequence is shown, tags or fusion partners need not be part of it.
Experiments:
Experiment in all cases: co-IP; GFP-tagged Hrr25 or GFP precipitated with GFP-trap agarose beads from yeast extracts (100 µg protein, 4 °C, 2 h; washes 50 mM Tris-HCl pH 7.5, 150 mM NaCl, 0.5% Triton); immunoblot for Pkc1-HA; cells untreated, treated with 250 mM HU for 4 h or with UV 150 J/m^2; also in sml1Δ mec1Δ tel1Δ cells
[1] = biological target: T1, GFP-tagged Hrr25 from plasmid p3357 (pUG36-HRR25-GFP), MET25 promoter (S. cerevisiae) (UniProt P29295)
T1 sequence: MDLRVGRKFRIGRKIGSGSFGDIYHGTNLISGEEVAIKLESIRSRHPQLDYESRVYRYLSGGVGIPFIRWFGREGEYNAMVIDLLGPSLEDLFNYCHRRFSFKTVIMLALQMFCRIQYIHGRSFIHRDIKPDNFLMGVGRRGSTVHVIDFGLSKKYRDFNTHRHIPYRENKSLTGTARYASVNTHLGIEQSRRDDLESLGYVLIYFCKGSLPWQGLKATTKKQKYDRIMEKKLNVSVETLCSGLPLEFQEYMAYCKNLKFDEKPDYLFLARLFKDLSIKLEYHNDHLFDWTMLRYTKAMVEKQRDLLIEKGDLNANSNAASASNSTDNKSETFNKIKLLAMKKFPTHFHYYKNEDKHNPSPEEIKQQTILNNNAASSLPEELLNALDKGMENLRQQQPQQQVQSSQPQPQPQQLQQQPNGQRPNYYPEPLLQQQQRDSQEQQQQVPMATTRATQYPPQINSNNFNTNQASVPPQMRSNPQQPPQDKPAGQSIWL

[2] = biological target: T2, Hrr25-GFP from plasmid p3562 (pRS423-HRR25-GFP), own promoter (S. cerevisiae) (UniProt P29295)
T2 sequence: T1 sequence

[3] = biological target: T3, Hrr25-Δ404-GFP (C-terminally truncated Hrr25 lacking residues 405-494, from plasmid p3567) (S. cerevisiae) (UniProt P29295)
T3 sequence: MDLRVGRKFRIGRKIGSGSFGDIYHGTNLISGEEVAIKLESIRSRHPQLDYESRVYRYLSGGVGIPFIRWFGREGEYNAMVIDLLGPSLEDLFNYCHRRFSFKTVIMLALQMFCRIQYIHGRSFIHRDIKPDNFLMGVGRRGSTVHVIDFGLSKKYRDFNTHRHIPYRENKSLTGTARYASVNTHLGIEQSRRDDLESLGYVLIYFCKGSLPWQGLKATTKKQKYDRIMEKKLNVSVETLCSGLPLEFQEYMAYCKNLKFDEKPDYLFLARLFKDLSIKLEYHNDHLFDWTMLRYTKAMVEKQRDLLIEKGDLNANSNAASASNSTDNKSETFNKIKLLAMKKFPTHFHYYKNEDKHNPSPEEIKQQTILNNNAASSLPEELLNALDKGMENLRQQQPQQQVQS

Measured: binding

B1: Pkc1-HA (protein kinase C 1, HA-tagged, from plasmid p813 YEp351-PKC1-HA) (enzyme, UniProt P24583 1-1151)
chain: MSFSQLEQNIKKKIAVEENIIRGASALKKKTSNVMVIQKCNTNIREARQNLEYLEDSLKKLRLKTAQQSQGENGSEDNERCNSKEYGFLSTKSPNEHIFSRLDLVKYDCPSLAQRIQYMLQQLEFKLQVEKQYQEANTKLTKLYQIDGDQRSSSAAEGGAMESKYRIQMLNKALKKYQAINVDFDQFKHQPNDIMDNQQPKFRRKQLTGVLTIGITAARDVDHIQSPMFARKPESYVTIKIDDTIKARTKPSRNDRWSEDFQIPVEKGNEIEITVYDKVNDSLIPVAIMWLLLSDIAEEIRKKKAGQTNEQQGWVNASNINGGSSLASEEGSTLTSTYSNSAIQSTSAKNVQGENTSTSQISTNSWFVLEPSGQILLTLGFHKSSQIERKQLMGGLHRHGAIINRKEEIFEQHGHHFVQKSFYNIMCCAYCGDFLRYTGFQCQDCKFLCHKKCYTNVVTKCIAKTSTDTDPDEAKLNHRIPHRFLPTSNRGTKWCCHCGYILPWGRHKVRKCSECGIMCHAQCAHLVPDFCGMSMEMANKILKTIQDTKRNQEKKKRTVPSAQLGSSIGTANGSDLSPSKLAERANAPLPPQPRKHDKTPSPQKVGRDSPTKQHDPIIDKRISLQTHGREKLNKFIDENEAYLNFTEGAQQTAEFSSPEKTLDPTSNRRSLGLTDLSIEHSQTWESKDDLMRDELELWKAQREEMELEIKQDSGEIQEDLEVDHIDLETKQKLDWENKNDFREADLTIDSTHTNPFRDMNSETFQIEQDHASKEVLQETVSLAPTSTHASRTTDQQSPQKSQTSTSAKHKKRAAKRRKVSLDNFVLLKVLGKGNFGKVILSKSKNTDRLCAIKVLKKDNIIQNHDIESARAEKKVFLLATKTKHPFLTNLYCSFQTENRIYFAMEFIGGGDLMWHVQNQRLSVRRAKFYAAEVLLALKYFHDNGVIYRDLKLENILLTPEGHIKIADYGLCKDEMWYGNRTSTFCGTPEFMAPEILKEQEYTKAVDWWAFGVLLYQMLLCQSPFSGDDEDEVFNAILTDEPLYPIDMAGEIVQIFQGLLTKDPEKRLGAGPRDADEVMEEPFFRNINFDDILNLRVKPPYIPEIKSPEDTSYFEQEFTSAPPTLTPLPSVLTTSQQEEFRGFSFMPDDLDL
binds: [1] | [2] | [3]
